We go through 5 molecules from article PMC9681113.

Holding throughout (experiment): affinity purification with mass spectrometry; GFP pulldown with GFP Tag Immunomagnetic Beads from lysates of HEK-293 Flp-In T-REx cells expressing EGFP, EGFP-MAB21L1 or mutant EGFP-MAB21L1 after 12 hrs of 1 μg/ml tetracycline; three biological replicates; MaxQuant
In assay [1] the target is T1, GFP-tagged MAB21L1 Arg51Gln (human) (UniProt Q13394).
T1 sequence: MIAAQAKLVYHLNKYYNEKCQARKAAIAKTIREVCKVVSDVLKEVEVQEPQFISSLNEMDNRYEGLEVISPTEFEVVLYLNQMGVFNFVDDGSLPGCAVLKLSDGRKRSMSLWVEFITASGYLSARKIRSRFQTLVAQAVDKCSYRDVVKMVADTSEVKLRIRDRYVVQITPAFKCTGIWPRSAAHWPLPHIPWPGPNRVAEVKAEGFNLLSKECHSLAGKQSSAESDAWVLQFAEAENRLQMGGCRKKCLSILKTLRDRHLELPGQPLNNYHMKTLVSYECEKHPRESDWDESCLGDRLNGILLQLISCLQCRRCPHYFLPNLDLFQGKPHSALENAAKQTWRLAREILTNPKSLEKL

Assay [2] deals with T2, GFP-tagged MAB21L1 Arg51Leu (human) (UniProt Q13394).
T2 sequence: T1 sequence with Q51L

For assay [3], the target named is T3, GFP-tagged wild-type MAB21L1 (human) (UniProt Q13394).
T3 sequence: T1 sequence with Q51R

Where a chain is given by its changes, count along the chain named. Results are given in words; binding and its absence hold for the method and conditions named. Binding seen in cells or lysates may run through a third protein. These calls come from enrichment with a bait or labelling near it, and not all partners need be listed. For part of these data: No binding means not detected with the bait. Sequences can lack the tags named with a protein.

B1: RNF219 (protein, UniProt Q5W0B1 1-726)
chain: MAQTVQNVTLSLTLPITCHICLGKVRQPVICINNHVFCSICIDLWLKNNSQCPACRVPITPENPCKEIIGGTSESEPMLSHTVRKHLRKTRLELLHKEYEDEIDCLQKEVEELKSKNLSLESQIKTILDPLTLVQGNQNEDKHLVTDNPSKINPETVAEWKKKLRTANEIYEKVKDDVDKLKEANKKLKLENGGLVRENLRLKAEVDNRSPQKFGRFAVAALQSKVEQYERETNRLKKALERSDKYIEELESQVAQLKNSSEEKEAMNSICQTALSADGKGSKGSEEDVVSKNQGDSARKQPGSSTSSSSHLAKPSSSRLCDTSSARQESTSKADLNCSKNKDLYQEQVEVMLDVTDTSMDTYLEREWGNKPSDCVPYKDEELYDLPAPCTPLSLSCLQLSTPENRESSVVQAGGSKKHSNHLRKLVFDDFCDSSNVSNKDSSEDDISRSENEKKSECFSSPKTGFWDCCSTSYAQNLDFESSEGNTIANSVGEISSKLSEKSGLCLSKRLNSIRSFEMNRTRTSSEASMDAAYLDKISELDSMMSESDNSKSPCNNGFKSLDLDGLSKSSQGSEFLEEPDKLEEKTELNLSKGSLTNDQLENGSEWKPTSFFLLSPSDQEMNEDFSLHSSSCPVTNEIKPPSCLFQTEFSQGILLSSSHRLFEDQRFGSSLFKMSSEMHSLHNHLQSPWSTSFVPEKRNKNVNQSTKRKIQSSLSSASPSKATKS
On to B1, for which the binding result in assay [1], in assay [2] and in assay [3] was “binds” in each case.

B2: PDXDC1 (protein, UniProt Q6P996 1-788)
chain: MDASLEKIADPTLAEMGKNLKEAVKMLEDSQRRTEEENGKKLISGDIPGPLQGSGQDMVSILQLVQNLMHGDEDEEPQSPRIQNIGEQGHMALLGHSLGAYISTLDKEKLRKLTTRILSDTTLWLCRIFRYENGCAYFHEEEREGLAKICRLAIHSRYEDFVVDGFNVLYNKKPVIYLSAAARPGLGQYLCNQLGLPFPCLCRVPCNTVFGSQHQMDVAFLEKLIKDDIERGRLPLLLVANAGTAAVGHTDKIGRLKELCEQYGIWLHVEGVNLATLALGYVSSSVLAAAKCDSMTMTPGPWLGLPAVPAVTLYKHDDPALTLVAGLTSNKPTDKLRALPLWLSLQYLGLDGFVERIKHACQLSQRLQESLKKVNYIKILVEDELSSPVVVFRFFQELPGSDPVFKAVPVPNMTPSGVGRERHSCDALNRWLGEQLKQLVPASGLTVMDLEAEGTCLRFSPLMTAAVLGTRGEDVDQLVACIESKLPVLCCTLQLREEFKQEVEATAGLLYVDDPNWSGIGVVRYEHANDDKSSLKSDPEGENIHAGLLKKLNELESDLTFKIGPEYKSMKSCLYVGMASDNVDAAELVETIAATAREIEENSRLLENMTEVVRKGIQEAQVELQKASEERLLEEGVLRQIPVVGSVLNWFSPVQALQKGRTFNLTAGSLESTEPIYVYKAQGAGVTLPPTPSGSRTKQRLPGQKPFKRSLRGSDALSETSSVSHIEDLEKVERLSSGPEQITLEASSTEGHPGAPSPQHTDQTEAFQKGVPHPEDDHSQVEGPESLR
Consider B2, for which the binding entry in assay [1], in assay [2] and in assay [3] was “binds” each time.

B3: FASTKD5 (protein, UniProt Q7L8L6 28-764)
chain: VSYWNVSSTQHGGQDPPEHISLCHSAKKVKNICSTFSSRRILTTSSAHPGLEFSKTSSSKASTLQLGSPRATGVDEEDVEVFDSFENMRVFLQLRPEYRVHSYNASETSQLLSVSEGELILHKVRVNQNNLQAQVIVDYLCKLSSLPAEQHPVLLGSTSFALLCQLSVKKIQLFDTQDLINVLKAFVILGIPHSHSMLDVYETKCCHQVWEMNMDQLLLVADLWRYLGRKVPRFLNIFSSYLNLHWKDLSLSQLVHLIYVIGENRQVSQDLMQKLESLILKYIDLINLEEVGTICLGFFKSSTNLSEFVMRKIGDLACANIQHLSSRSLVNIVKMFRFTHVDHINFMKQIGEIAPQRIPSLGVQGVMHLTLYCSALRFLNEGVMNAVAASLPPRVAHCRSKDVAKILWSFGTLNYKPPNAEEFYSSLISEIHRKMPEFNQYPEHLPTCLLGLAFLEYFPVELIDFALSPGFVRLAQERTKFDLLKELYTLDGTVGIECPDYRGNRLSTHLQQEGSELLWYLAEKDMNSKPEFLETVFLLETMLGGPQYVKHHMILPHTRSSDLEVQLDVNLKPLPFNREATPAENVAKLRLEHVGVSLTDDLMNKLLKGKARGHFQGKTESEPGQQPMELENKAAVPLGGFLCNVADKSGAMEMAGLCPAACMQTPRMKLAVQFTNRNQYCYGSRDLLGLHNMKRRQLARLGYRVVELSYWEWLPLLKRTRLEKLAFLHEKVFTSAL
As for B3, the binding result in assay [1], in assay [2] and in assay [3] was “binds” each time.

B4: LRRFIP1 (protein, UniProt Q32MZ4 1-808)
chain: MTSPAAAQSREIDCLSPEAQKLAEARLAAKRAARAEAREIRMKELERQQKEEDSERYSRRSRRNTSASDEDERMSVGSRGSLRVEERPEKDFTEKGSRNMPGLSAATLASLGGTSSRRGSGDTSISIDTEASIREIKELNELKDQIQDVEGKYMQGLKEMKDSLAEVEEKYKKAMVSNAQLDNEKTNFMYQVDTLKDMLLELEEQLAESRRQYEEKNKEFEREKHAHSILQFQFAEVKEALKQREEMLEKHGIILNSEIATNGETSDTLNNVGYQGPTKMTKEELNALKSTGDGTLGRASEVEVKNEIVANVGKREILHNTEKEQHTEDTVKDCVDIEVFPAGENTEDQKSSEDTAPFLGTLAGATYEEQVQSQILESSSLPENTVQVESNEVMGAPDDRTRTPLEPSNCWSDLDGGNHTENVGEAAVTQVEEQAGTVASCPLGHSDDTVYHDDKCMVEVPQELETSTGHSLEKEFTNQEAAEPKEVPAHSTEVGRDHNEEEGEETGLRDEKPIKTEVPGSPAGTEGNCQEATGPSTVDTQNEPLDMKEPDEEKSDQQGEALDSSQKKTKNKKKKNKKKKSPVPVETLKDVKKELTYQNTDLSEIKEEEQVKSTDRKSAVEAQNEVTENPKQKIAAESSENVDCPENPKIKLDGKLDQEGDDVQTAAEEVLADGDTLDFEDDTVQSSGPRAGGEELDEGVAKDNAKIDGATQSSPAEPKSEDADRCTLPEHESPSQDISDACEAESTERCEMSEHPSQTVRKALDSNSLENDDLSAPGREPGHFNPESREDTRGGNEKGKSKEDCTMS
Regarding B4, the figures for the binding entry in assay [1], in assay [2] and in assay [3] were “binds”, “binds” and “no binding”, respectively.

B5: METTL16 (protein, UniProt Q86W50 1-562)
chain: MALSKSMHARNRYKDKPPDFAYLASKYPDFKQHVQINLNGRVSLNFKDPEAVRALTCTLLREDFGLSIDIPLERLIPTVPLRLNYIHWVEDLIGHQDSDKSTLRRGIDIGTGASCIYPLLGATLNGWYFLATEVDDMCFNYAKKNVEQNNLSDLIKVVKVPQKTLLMDALKEESEIIYDFCMCNPPFFANQLEAKGVNSRNPRRPPPSSVNTGGITEIMAEGGELEFVKRIIHDSLQLKKRLRWYSCMLGKKCSLAPLKEELRIQGVPKVTYTEFCQGRTMRWALAWSFYDDVTVPSPPSKRRKLEKPRKPITFVVLASVMKELSLKASPLRSETAEGIVVVTTWIEKILTDLKVQHKRVPCGKEEVSLFLTAIENSWIHLRRKKRERVRQLREVPRAPEDVIQALEEKKPTPKESGNSQELARGPQERTPCGPALREGEAAAVEGPCPSQESLSQEENPEPTEDERSEEKGGVEVLESCQGSSNGAQDQEASEQFGSPVAERGKRLPGVAGQYLFKCLINVKKEVDDALVEMHWVEGQNRDLMNQLCTYIRNQIFRLVAVN
For B5, the binding result in assay [1], in assay [2] and in assay [3] was “binds” each time.
